Data published in the supplement of paper PMC10849652.
This is one part of the list.

The chains behind the UniProt entries cited, without tags or fusion partners. Where a name states a change or a piece, a line headed by the entry shows the natural chain unless it says otherwise.
UniProt P34932: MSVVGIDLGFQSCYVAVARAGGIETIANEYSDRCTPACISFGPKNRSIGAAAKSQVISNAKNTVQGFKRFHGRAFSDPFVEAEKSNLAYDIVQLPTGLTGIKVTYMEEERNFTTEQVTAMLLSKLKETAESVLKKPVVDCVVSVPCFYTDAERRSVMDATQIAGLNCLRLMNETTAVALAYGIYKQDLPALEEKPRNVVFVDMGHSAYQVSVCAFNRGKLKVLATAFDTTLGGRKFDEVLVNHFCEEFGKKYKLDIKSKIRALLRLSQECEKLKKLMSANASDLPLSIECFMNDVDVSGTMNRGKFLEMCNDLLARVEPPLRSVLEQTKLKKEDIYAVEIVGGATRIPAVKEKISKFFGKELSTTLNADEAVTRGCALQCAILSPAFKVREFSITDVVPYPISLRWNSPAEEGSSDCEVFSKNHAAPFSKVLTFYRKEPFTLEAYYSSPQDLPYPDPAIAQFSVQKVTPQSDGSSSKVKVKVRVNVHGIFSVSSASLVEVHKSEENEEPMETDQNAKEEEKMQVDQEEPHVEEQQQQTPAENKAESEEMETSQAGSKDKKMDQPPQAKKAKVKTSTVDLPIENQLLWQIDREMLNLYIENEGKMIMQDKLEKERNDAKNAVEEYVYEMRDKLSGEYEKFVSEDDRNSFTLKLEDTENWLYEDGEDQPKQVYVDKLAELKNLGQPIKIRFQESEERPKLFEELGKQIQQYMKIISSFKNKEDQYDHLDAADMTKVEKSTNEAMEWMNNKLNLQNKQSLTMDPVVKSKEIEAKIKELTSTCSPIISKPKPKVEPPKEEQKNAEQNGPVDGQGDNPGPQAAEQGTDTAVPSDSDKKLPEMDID
UniProt P52597: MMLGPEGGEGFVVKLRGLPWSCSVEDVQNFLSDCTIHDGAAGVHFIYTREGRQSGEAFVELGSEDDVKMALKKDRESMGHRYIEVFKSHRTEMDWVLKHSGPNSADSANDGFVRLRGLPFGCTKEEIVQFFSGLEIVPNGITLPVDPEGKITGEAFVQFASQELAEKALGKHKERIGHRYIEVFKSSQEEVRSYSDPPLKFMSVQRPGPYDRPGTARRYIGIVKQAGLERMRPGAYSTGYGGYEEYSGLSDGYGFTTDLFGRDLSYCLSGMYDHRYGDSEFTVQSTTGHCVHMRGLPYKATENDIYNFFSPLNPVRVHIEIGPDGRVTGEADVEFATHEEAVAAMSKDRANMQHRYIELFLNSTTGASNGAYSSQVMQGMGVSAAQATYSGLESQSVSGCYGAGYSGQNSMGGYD
UniProt Q6YN16: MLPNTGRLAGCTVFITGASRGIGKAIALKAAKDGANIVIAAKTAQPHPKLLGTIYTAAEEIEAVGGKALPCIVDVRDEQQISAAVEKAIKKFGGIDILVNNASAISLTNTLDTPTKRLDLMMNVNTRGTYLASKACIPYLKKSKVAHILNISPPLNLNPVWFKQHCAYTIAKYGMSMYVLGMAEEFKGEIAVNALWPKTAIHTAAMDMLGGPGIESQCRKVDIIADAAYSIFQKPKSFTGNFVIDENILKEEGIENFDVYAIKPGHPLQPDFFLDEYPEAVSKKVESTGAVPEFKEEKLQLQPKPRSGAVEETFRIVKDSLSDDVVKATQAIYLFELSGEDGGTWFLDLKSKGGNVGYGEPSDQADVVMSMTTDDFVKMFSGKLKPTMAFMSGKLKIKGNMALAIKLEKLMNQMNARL
UniProt Q9BUP3: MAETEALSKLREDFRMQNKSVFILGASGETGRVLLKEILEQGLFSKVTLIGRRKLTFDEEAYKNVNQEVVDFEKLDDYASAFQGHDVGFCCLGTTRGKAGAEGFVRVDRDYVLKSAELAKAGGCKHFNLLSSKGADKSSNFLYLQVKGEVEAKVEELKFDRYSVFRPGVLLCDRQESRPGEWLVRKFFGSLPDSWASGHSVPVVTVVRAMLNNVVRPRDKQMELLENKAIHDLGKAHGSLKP
UniProt P17096: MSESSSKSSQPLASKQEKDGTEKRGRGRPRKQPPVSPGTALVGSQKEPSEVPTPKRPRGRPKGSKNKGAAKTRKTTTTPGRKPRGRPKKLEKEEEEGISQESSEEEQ
UniProt O14979: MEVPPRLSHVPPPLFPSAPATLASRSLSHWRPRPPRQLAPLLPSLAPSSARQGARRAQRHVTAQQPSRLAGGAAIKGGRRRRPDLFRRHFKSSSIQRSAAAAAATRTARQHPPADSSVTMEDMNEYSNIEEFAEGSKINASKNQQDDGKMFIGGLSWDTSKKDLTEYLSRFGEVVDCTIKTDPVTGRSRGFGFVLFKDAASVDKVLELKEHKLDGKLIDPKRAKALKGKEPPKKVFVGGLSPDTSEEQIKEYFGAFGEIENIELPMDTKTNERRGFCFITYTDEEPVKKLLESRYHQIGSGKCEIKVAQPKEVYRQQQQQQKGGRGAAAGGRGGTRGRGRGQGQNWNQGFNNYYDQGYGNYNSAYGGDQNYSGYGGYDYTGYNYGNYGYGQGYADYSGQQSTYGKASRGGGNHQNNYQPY
UniProt O60921: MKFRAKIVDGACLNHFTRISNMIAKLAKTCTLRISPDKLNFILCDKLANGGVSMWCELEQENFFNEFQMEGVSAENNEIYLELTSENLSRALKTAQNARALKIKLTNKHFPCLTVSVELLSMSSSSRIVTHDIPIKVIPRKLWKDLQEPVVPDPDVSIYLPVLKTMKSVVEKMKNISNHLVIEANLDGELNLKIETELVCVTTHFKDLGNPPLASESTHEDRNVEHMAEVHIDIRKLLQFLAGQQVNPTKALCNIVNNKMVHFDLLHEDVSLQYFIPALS
UniProt Q96JB3: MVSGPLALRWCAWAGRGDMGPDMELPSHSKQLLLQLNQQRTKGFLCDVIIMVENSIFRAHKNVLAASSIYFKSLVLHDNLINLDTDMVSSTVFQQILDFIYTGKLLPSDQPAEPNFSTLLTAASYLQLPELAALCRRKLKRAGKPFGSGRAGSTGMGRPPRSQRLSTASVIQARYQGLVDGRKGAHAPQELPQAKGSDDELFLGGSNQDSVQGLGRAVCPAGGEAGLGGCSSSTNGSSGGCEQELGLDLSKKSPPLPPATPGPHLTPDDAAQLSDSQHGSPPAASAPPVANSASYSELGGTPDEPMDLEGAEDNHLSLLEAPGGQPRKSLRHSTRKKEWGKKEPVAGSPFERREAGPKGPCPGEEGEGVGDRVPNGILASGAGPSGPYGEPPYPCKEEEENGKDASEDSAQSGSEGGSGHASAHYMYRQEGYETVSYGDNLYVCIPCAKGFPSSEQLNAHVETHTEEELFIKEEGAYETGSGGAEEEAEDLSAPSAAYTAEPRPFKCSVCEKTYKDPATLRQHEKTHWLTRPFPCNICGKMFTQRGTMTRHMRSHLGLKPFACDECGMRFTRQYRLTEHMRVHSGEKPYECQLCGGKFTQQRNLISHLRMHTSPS
UniProt Q9BW71: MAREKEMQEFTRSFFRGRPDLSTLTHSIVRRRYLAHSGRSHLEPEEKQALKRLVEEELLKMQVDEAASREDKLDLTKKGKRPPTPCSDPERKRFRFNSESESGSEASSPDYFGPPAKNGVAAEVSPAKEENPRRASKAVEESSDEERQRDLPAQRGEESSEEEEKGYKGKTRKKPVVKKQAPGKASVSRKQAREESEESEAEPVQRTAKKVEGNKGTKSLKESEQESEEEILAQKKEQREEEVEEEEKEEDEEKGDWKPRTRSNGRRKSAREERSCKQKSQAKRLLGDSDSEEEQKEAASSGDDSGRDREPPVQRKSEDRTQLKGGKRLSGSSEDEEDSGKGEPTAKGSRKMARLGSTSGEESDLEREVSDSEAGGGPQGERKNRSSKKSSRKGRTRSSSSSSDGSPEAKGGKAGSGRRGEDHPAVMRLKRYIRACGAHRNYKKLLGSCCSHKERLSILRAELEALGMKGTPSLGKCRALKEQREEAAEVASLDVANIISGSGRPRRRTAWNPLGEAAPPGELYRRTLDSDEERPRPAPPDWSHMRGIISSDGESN
UniProt P51659: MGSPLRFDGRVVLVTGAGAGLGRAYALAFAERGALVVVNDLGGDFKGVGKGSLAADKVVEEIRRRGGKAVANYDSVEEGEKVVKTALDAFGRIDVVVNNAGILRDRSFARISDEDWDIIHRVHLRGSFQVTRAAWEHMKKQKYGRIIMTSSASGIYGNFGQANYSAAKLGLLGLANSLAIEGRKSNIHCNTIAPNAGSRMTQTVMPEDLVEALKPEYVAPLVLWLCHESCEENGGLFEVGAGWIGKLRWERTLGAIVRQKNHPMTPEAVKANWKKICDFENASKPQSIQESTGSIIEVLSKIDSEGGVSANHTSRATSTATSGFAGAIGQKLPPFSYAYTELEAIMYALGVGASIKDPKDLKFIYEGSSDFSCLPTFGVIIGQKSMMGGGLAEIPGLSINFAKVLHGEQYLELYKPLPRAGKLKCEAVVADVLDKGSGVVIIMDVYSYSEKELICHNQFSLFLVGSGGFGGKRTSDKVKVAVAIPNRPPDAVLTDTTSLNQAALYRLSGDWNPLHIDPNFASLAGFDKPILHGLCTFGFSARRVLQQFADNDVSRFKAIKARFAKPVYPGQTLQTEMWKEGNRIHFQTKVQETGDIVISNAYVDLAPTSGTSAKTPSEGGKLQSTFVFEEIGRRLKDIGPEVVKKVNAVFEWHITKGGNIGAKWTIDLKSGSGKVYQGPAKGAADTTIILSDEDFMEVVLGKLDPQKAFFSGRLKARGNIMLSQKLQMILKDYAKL
UniProt Q9NSE4: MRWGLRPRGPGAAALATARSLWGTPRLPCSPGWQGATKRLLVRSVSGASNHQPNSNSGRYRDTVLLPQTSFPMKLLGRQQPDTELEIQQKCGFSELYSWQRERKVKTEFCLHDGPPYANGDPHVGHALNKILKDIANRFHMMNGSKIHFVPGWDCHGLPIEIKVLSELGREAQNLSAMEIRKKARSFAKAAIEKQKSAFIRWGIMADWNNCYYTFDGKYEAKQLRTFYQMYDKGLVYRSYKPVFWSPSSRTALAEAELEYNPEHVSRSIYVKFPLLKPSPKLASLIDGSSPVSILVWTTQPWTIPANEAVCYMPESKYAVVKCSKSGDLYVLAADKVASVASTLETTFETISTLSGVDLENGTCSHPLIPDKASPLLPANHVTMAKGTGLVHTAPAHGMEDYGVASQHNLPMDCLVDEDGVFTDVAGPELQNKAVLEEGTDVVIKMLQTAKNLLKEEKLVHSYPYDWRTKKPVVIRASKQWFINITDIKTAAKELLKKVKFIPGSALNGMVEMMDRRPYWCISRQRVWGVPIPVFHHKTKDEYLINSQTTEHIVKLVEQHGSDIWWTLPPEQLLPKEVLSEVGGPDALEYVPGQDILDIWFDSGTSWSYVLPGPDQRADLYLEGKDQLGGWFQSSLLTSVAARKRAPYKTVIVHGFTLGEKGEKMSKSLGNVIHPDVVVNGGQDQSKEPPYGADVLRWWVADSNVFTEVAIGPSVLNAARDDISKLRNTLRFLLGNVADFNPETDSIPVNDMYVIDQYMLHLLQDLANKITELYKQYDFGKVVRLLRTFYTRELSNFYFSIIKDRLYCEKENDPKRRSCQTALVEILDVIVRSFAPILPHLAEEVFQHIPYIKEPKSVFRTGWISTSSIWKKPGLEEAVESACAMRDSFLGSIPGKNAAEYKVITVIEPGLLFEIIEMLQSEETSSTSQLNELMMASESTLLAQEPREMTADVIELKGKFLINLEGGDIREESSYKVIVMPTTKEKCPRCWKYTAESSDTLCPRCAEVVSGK
UniProt P10809, whole entry, looked up: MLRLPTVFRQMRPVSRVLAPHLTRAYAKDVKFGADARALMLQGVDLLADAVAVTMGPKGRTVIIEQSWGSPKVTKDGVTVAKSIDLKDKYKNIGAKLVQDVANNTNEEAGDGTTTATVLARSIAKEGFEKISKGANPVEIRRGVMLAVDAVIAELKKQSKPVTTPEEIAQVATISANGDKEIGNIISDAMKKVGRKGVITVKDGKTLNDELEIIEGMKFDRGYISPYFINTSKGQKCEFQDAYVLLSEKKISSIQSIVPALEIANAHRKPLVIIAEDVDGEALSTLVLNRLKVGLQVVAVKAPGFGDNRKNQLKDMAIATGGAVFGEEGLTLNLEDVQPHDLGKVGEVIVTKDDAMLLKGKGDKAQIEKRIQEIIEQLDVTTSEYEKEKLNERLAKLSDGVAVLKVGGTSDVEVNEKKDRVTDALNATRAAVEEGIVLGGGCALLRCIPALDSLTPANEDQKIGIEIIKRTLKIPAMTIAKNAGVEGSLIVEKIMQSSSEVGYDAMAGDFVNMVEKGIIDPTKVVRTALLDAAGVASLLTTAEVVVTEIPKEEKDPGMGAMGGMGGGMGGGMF
UniProt Q99714: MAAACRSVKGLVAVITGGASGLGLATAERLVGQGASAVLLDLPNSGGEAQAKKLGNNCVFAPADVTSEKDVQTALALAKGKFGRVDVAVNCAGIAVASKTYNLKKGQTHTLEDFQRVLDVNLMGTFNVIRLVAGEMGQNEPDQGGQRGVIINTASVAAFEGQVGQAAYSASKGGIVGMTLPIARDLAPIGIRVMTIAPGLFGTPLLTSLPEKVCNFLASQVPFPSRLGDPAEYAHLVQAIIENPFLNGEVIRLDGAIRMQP

What was measured:
Experiment in all cases: log2 fold change, soluble protein after heating vs DMSO (PISA); higher = thermal stabilisation; K562 cells, 10 uM, 30 min; active = over 0.2 and 3.5 SD of the protein, either way, in both replicates (recomputed)
[1] = compound: C#Cc1cccc(Nc2ncnc3cc(OCCOC)c(OCCOC)cc23)c1 [erlotinib]
Method in brief: (§1)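 Quantification of soluble protein used TMTpro 16plex LC-MS/MS, with channel sums equalised. Samples were the supernatant after 21,000xg for 90 min of pooled aliquots from K562 cells (2×10^6 cells/mL) treated with 10 μM compound for 30 min, heated for 3 min over 48°C-58°C, and extracted in PBS with 0.5% NP-40 at 4°C. Values, from duplicates, describe thermal stability against control samples on a log2 fold-change scale.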

[2] = compound: C/C(=N\NC(=O)C1=CC(=CC=C1)S(=O)(=O)N2CCOCC2)/C3=C(C=CC(=C3)Cl)O
Method in brief: as §1

[3] = compound: C1=CC(=C(C=C1Cl)C2=NC3=NC=CN=C3C(=N2)NC4=CC=NC=C4)F
Method in brief: as §1

[4] = compound: C1=CC(=CC=C1C2=NC3=C(N2)C=C(C=C3)C(=O)N)OC4=CC=C(C=C4)Cl
Method in brief: as §1

[5] = compound: C1=CC2=C(C=CC(=C2)/C=C\3/C(=O)NC(=NCC4=CC=CS4)S3)N=C1
Method in brief: as §1

[6] = compound: C1=CC2=NC=CN=C2C=C1/C=C/3\C(=O)NC(=O)S3
Method in brief: as §1

[7] = compound: C1=CC=C(C=C1)C2=NC(=C(N2)C3=CC=NC=C3)C4=CC(=C(C=C4)Cl)O
Method in brief: as §1

[8] = compound: C1=CC=C2C(=C1)C3=NNC4=CC=CC(=C43)C2=O
Method in brief: as §1

[9] = compound: C1CCN(C1)C(=O)NC2=CC=CC(=C2)NC3=NC=C(C(=N3)NCCC4=CN=CN4)Br
Method in brief: as §1

[10] = compound: C1CN(CCC1(CC2=CC=C(C=C2)Cl)N)C3=NC=NC4=C3C=CN4
Method in brief: as §1

Measured: log2 fold change

HSPA4 (UniProt P34932)
inactive: [1] -0.048 | [2] 0.03 | [3] 0.091 | [4] 0 | [5] -0.027 | [6] 0.013 | [7] 0.03 | [8] 0.022 | [9] -0.001 | [10] 0.02

HSD17B11 (UniProt Q8NBQ5)
inactive: [1] -0.01 | [2] 0.076 | [3] 0.089 | [4] 0.084 | [5] 0.008 | [6] -0.029 | [7] -0.006 | [8] 0.025 | [9] -0.026 | [10] 0.082

HMGCS1 (UniProt Q01581)
inactive: [1] 0.009 | [2] 0.002 | [3] 0.059 | [4] -0.008 | [5] 0.012 | [6] -0.188 | [7] 0.034 | [8] -0.052 | [9] 0.004 | [10] 0.052

HNRNPR isoform 2 (UniProt O43390)
inactive: [1] -0.097 | [2] -0.072 | [3] -0.298 | [4] 0.041 | [5] -0.007 | [6] 0.012 | [7] -0.031 | [8] -0.06 | [9] 0.038 | [10] -0.144

HSPG2 (UniProt P98160)
inactive: [1] -0.079 | [2] 0.027 | [3] 0.016 | [4] 0.01 | [5] 0.026 | [6] 0.013 | [7] -0.126 | [8] -0.006 | [9] 0.011 | [10] -0.051

HOOK3 (UniProt Q86VS8)
inactive: [1] 0.04 | [2] 0.039 | [3] 0.009 | [4] -0.008 | [5] 0.055 | [6] 0.032 | [7] -0.002 | [8] -0.036 | [9] -0.005 | [10] -0.024

HNRNPF (UniProt P52597)
inactive: [1] 0.02 | [2] 0.126 | [3] -0.036 | [4] -0.034 | [5] -0.098 | [6] 0.017 | [7] 0.079 | [8] 0.003 | [9] -0.044 | [10] -0.044

HMMR isoform 3 (UniProt O75330)
inactive: [1] 0.016 | [2] 0.035 | [3] -0.036 | [4] -0.024 | [5] -0.016 | [6] 0.017 | [7] -0.017 | [8] 0.009 | [9] -0.03 | [10] -0.069

HIP1 (UniProt O00291)
inactive: [1] 0.018 | [2] 0.033 | [3] 0.046 | [4] -0.004 | [5] 0.018 | [6] -0.056 | [7] 0.011 | [8] -0.166 | [9] -0.209 | [10] 0.09

HSDL2 (UniProt Q6YN16)
inactive: [1] 0.048 | [2] 0.042 | [3] 0.118 | [4] -0.05 | [5] 0.025 | [6] 0.025 | [7] 0.047 | [8] 0.014 | [9] -0.032 | [10] 0.054

HSPA5 (UniProt P11021)
inactive: [1] -0.023 | [2] 0.005 | [3] -0.005 | [4] -0.019 | [5] -0.029 | [6] -0.004 | [7] -0.032 | [8] 0.021 | [9] 0.019 | [10] 0.017

HTATIP2 isoform 3 (UniProt Q9BUP3)
inactive: [1] 0.016 | [2] 0.112 | [3] 0.016 | [4] -0.02 | [5] -0.143 | [6] 0.005 | [7] 0.012 | [8] 0.033 | [9] -0.039 | [10] 0.005

HSPA9 (UniProt P38646)
inactive: [1] -0.007 | [2] 0.003 | [3] 0.054 | [4] -0.032 | [5] -0.024 | [6] 0.005 | [7] -0.035 | [8] 0.023 | [9] 0.028 | [10] 0.036

HIST2H2BF isoform 2 (UniProt Q5QNW6)
inactive: [1] 0.013 | [2] -0.161 | [3] -0.433 | [4] 0.046 | [5] 0.048 | [6] 0.223 | [7] -0.057 | [8] -0.083 | [9] 0.191 | [10] -0.373

HMGA1 (UniProt P17096)
inactive: [1] -0.147 | [2] -0.108 | [3] -0.174 | [4] 0.012 | [5] -0.116 | [6] -0.025 | [7] -0.062 | [8] 0.198 | [9] 0.056 | [10] -0.045

HRC (UniProt P23327)
inactive: [1] 0.012 | [2] -0.056 | [3] 0.042 | [4] -0.018 | [5] 0.005 | [6] 0.023 | [7] -0.021 | [8] -0.087 | [9] 0.041 | [10] 0.045

HYOU1 (UniProt Q9Y4L1)
inactive: [1] -0.048 | [2] -0.062 | [3] -0.013 | [4] -0.03 | [5] -0.07 | [6] 0.014 | [7] 0.008 | [8] 0.061 | [9] -0.018 | [10] -0.042

HSPB11 (UniProt Q9Y547)
inactive: [1] -0.024 | [2] 0.014 | [3] 0.049 | [4] 0.073 | [5] 0.075 | [6] 0.036 | [7] 0.013 | [8] 0.079 | [9] -0.058 | [10] 0.03

HNRNPDL (UniProt O14979)
inactive: [1] -0.096 | [2] -0.131 | [3] -0.269 | [4] -0.015 | [5] -0.059 | [6] 0.043 | [7] -0.125 | [8] -0.037 | [9] 0.079 | [10] -0.057

HUS1 (UniProt O60921)
inactive: [1] 0.029 | [2] 0.023 | [3] 0.09 | [4] 0.018 | [5] -0.004 | [6] -0.023 | [7] 0 | [8] -0.043 | [9] -0.003 | [10] 0.027

HRAS (UniProt P01112)
inactive: [1] 0.029 | [2] 0.034 | [3] 0.069 | [4] 0.146 | [5] -0.356 | [6] -0.244 | [7] 0.138 | [8] -0.168 | [9] -0.08 | [10] 0.048

HIC2 (UniProt Q96JB3)
inactive: [1] 0.128 | [2] 0 | [3] -0.17 | [4] 0.028 | [5] -0.159 | [6] -0.08 | [7] 0.012 | [8] -0.266 | [9] -0.023 | [10] -0.09

HSPA8 (UniProt P11142)
inactive: [1] -0.016 | [2] -0.031 | [3] 0.01 | [4] -0.014 | [5] 0 | [6] 0 | [7] -0.003 | [8] -0.088 | [9] 0.009 | [10] 0.017

HIRIP3 (UniProt Q9BW71)
inactive: [1] 0.065 | [2] -0.023 | [3] 0.055 | [4] 0 | [5] 0.022 | [6] -0.031 | [7] -0.023 | [8] 0.032 | [9] -0.02 | [10] 0.006

HSD17B4 (UniProt P51659)
inactive: [1] -0.025 | [2] 0.051 | [3] 0.041 | [4] 0.059 | [5] 0.024 | [6] 0.01 | [7] -0.052 | [8] -0.014 | [9] -0.011 | [10] -0.013

IARS2 (UniProt Q9NSE4)
inactive: [1] 0.001 | [2] 0.023 | [3] 0.021 | [4] 0.019 | [5] -0.024 | [6] 0.02 | [7] -0.003 | [8] -0.014 | [9] 0.015 | [10] 0.046

HSPD1 (UniProt P10809)
inactive: [1] 0.007 | [2] -0.028 | [3] -0.043 | [4] -0.01 | [5] -0.009 | [6] -0.002 | [7] -0.006 | [8] 0.032 | [9] 0.017 | [10] 0.044

HSPA14 (UniProt Q0VDF9)
inactive: [1] 0.048 | [2] 0.062 | [3] -0.06 | [4] -0.026 | [5] 0.064 | [6] 0.015 | [7] -0.021 | [8] 0.014 | [9] -0.046 | [10] -0.18

Two neighbouring records from above:
IARS2 (UniProt Q9NSE4)
inactive: [1] 0.001 | [2] 0.023 | [3] 0.021 | [4] 0.019 | [5] -0.024 | [6] 0.02 | [7] -0.003 | [8] -0.014 | [9] 0.015 | [10] 0.046

HSPD1 (UniProt P10809)
inactive: [1] 0.007 | [2] -0.028 | [3] -0.043 | [4] -0.01 | [5] -0.009 | [6] -0.002 | [7] -0.006 | [8] 0.032 | [9] 0.017 | [10] 0.044

(cont.)

HSD17B10 (UniProt Q99714)
inactive: [1] -0.02 | [2] 0.067 | [3] 0.114 | [4] 0.023 | [5] -0.041 | [6] -0.003 | [7] 0.071 | [8] 0.036 | [9] -0.054 | [10] 0.064
